Hit rate of the full screen: of about 53,000 sequences, about 3,700 (7%) were called active.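 How the source made its calls: active means gene knockdowns whose robust z-score for IL-1 alpha signal is at least 2 or at most -2, so actives lie on both sides; inactive means the rest.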 Some of the results follow.

The assay in a line: Components of the Cytosolic LPS Sensing Pathway: Gene Identification via Genome-wide siRNA Screen.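 Further: robust z of the log signal after scaling to non-targeting control siRNA wells of the plate.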 The settings on record: RAW264.7 macrophages, IL-1a HTRF, actives lie on both sides, screened at 100 nM (by protocol), cells primed 5 h with Pam3CSK4 first. The essentials:
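IL-1a HTRF of supernatants after 24 hour LipidA transfection of Pam3CSK4-primed (5 hours) RAW264.7 cells, 48h post-siRNA transfection (100 nM). Scores: percent of plate negative-control median, then log-based robust z-score.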
Background: TR-FRET usually uses a lanthanide donor and a delayed reading to cut background.
As for GGAAAAGAAAAUCAUUGCGTT against Chmp2a, the z-score was inactive: 0.66.

On to GGCACAGAUUGUGGUGAAGTT against Ccdc43, for which the z-score is inactive: -0.518.

As for GGCUUCCAGUACCAUUAGGTT against Ucp1, the z-score is inactive: -1.1.

GGAACUGCUCAAGAUCAAGTT against Plagl2: the z-score was inactive: 1.92.

As for GGACCAUUCAUGGACUAGCTT against Map7, the z-score is inactive: -0.413.

GGAUCAUUGAUGUCAUCUATT against Abcb10: the z-score is inactive: -1.68.

Take GCUGCUUGUCCUAAGUUGATT against Aqp8: the z-score was inactive: -0.165.

As to CGGUCUUUAUACACAUAUATT against Wnt7a, the z-score was inactive: -0.0297.

As to GGCUGGAUCCUCAUUGACCTT against Kctd10, the z-score was inactive: -0.963.

Consider GGCUGUAUGUAGUGAAUAUTT against Nck2, for which the z-score was inactive: -0.572.

As for GGUGGUUGAUCUGCUAAGGTT against Proser1, the z-score is inactive: 0.637.

For GGAGUCAAUGCAAUUGUUUTT against Arl8b, the z-score was inactive: -0.323.

Turning to GGAACAAGGUCCUAAACCATT against Gtf2f1, the z-score is inactive: -0.704.

In the case of GCCCUUGCACUAUUUUUCCTT against Olfr1218, the z-score is inactive: 0.902.

As for GGAAUCAAUAAGAAUGACGTT against Tln2, the z-score is inactive: -0.716.

As for GGUUGGCAAGUUCCUGUAUTT against Cdk3, the z-score was inactive: -0.825.

In the case of GGAGAGGUCAGAAUAAUAATT against Tmprss11d, the z-score was inactive: -0.423.

In the case of UGUUGGAUACUAGUCACAATT against Olfr1066, the z-score was inactive: -0.24.

With GGGCUAGCCUAGAUAAAAATT against Sltm, the z-score was inactive: -1.38.

Take GGGAUAUGGUGUGAUCUUUTT against Cyp2b19: the z-score is inactive: 0.705.

For the sequence GGACUAUGCAGAUGCCUACTT against Cacnb3, the z-score was inactive: 7.2e-05.

Consider GGAUUCACGUAAGAUUGACTT against Prl6a1, for which the z-score is inactive: 0.0592.

For CCAAACACUAUGUGACAAGTT against Trim8, the z-score is inactive: -0.626.

In the case of CCUCAUUGGUUUGACCCAGTT against Hsd17b6, the z-score is inactive: 0.172.

For the sequence GGACAAUAUAUCCGGAUUUTT against Myl12b, the z-score is inactive: -0.493.

Regarding CCGAAUGACGGUUGAAUAUTT against Nkrf, the z-score was inactive: 0.624.

Regarding GGGCAGAAUGCCAGUGUACTT against Kif22, the z-score was inactive: -0.305.

For the sequence GGAACUGAAAAAGUUGUUGTT against Niban1, the z-score is inactive: -0.253.

On to CCUCAACAUAUUCAAACAUTT against Tlr7, for which the z-score is inactive: -0.269.

Regarding GGACAUAAAAUAUCUACGGTT against Trim17, the z-score was inactive: 0.301.

In the case of GGGUCUUUGUACAGAUUGCTT against Olfr275, the z-score is inactive: 0.0844.

GCUCACCAGAAUUUGUGGATT against Tcp11x2: the z-score is inactive: 0.815.

Regarding CGGAGCUCUAAAUGAACAUTT against Snai3, the z-score is inactive: 1.3.

As to GCUACUAUAUGCGUUUCUUTT against Fads2, the z-score is inactive: 0.98.

Take GCUUUAUGCAGACAAACACTT against Zbtb8b: the z-score is inactive: -0.785.

Consider GAUAAGUGCUUUCGUGUUUTT against Klrb1b, for which the z-score was inactive: 0.0759.

Regarding GCAACAUUUCUCGGAAAUUTT against Olfr1275, the z-score is inactive: -0.266.

Regarding GGUUUGUGUGGUUUUUCCUTT against Tmem216, the z-score is inactive: -0.965.

Take GCAAUUGUUAACUCUGGGATT against Olfr1200: the z-score was inactive: 0.661.

GCUGAAAAUCACCCAGCAATT against Afap1: the z-score is inactive: 0.907.

With GCCACUCCUGGACACAAAATT against Ccnt2, the z-score is inactive: 1.23.

Consider GCAGACCGAGUGAUCACCUTT against Cul4a, for which the z-score is inactive: 0.369.

On to CGCGUGAUUGAUGUUUUACTT against Atxn10, for which the z-score is inactive: 0.793.

With GCGGAGGCAUUGCUAAUGATT against Mettl15, the z-score is inactive: 1.53.

Turning to GGUAAAUAGCGAUAAGGUATT against Tgm1, the z-score was inactive: 1.28.

Turning to GGACUCUUUUUGUUCUUUGTT against Vgll2, the z-score is inactive: -1.22.

Consider GCGUAUAGCAGAAAACAGGTT against Rasl10a, for which the z-score was inactive: 0.973.

Consider GGAACAUGGCAACUCCGUGTT against Hcn1, for which the z-score is inactive: 0.102.

On to GCGCAAGUACCUCAAGAGUTT against Grem2, for which the z-score was inactive: 0.564.

Regarding GGUGAUCAACAAUGGCAAUTT against Clec4a3, the z-score was inactive: 1.26.

As for CGCACUGCCUCACUUUGAGTT against Kiss1r, the z-score is inactive: 0.16.

Take GCCACUCUGUCAAUUAACATT against Zbtb44: the z-score is inactive: -1.49.

For GGCUGUUCGAGCCCUGAAATT against Naca, the z-score was inactive: -1.22.

In the case of GGAGGACACAGAUUCUACUTT against Fam161b, the z-score was inactive: -1.87.

Turning to GGUGACCUACAAGAUUUGUTT against Csdc2, the z-score is inactive: -0.801.

For GGCCCAGCAUGCAAGUUAUTT against Sh2d2a, the z-score is active: 2.17.

On to CGGUGAACUAUGGUCCUGATT against Ceacam20, for which the z-score is inactive: -0.314.

Consider CCACUCAUCAGUGACAAAATT against Olfr820, for which the z-score is inactive: 0.877.

In the case of CGUGGUCUCGGACACUUUCTT against Hcn2, the z-score was inactive: -0.096.

Take GGGUCUUUCUAAAAAGUUCTT against Fry: the z-score was inactive: -0.75.

Turning to GCAAGUGUACUAUUCCAUCTT against Myh6, the z-score is inactive: 0.0886.

Take GCCUUCUGUGAGGAUCUUUTT against Megf10: the z-score was inactive: 0.171.

With GGAAUUGGAUGAAAUGCCATT against Msantd2, the z-score was inactive: 0.504.

Turning to GAGUUACAUGCGAAUAUGATT against Ndufc1, the z-score is inactive: -1.37.

With CCGAUUUAACUGAAUUUGCTT against Acaa2, the z-score is inactive: 0.342.

GCCAGAGGAUAACCUAUCGTT against Dsg4: the z-score was inactive: -0.254.

For GGAUGUAAGGCCUUUUUUATT against Esr2, the z-score is inactive: 0.676.

With GGAACAUAAGAUCUGCCUGTT against Crybb1, the z-score is inactive: 0.84.

As for GGCAAAAAGAAGCUGAUGATT against Zswim6, the z-score was inactive: -0.631.

With GCUCAUUCCAGGUAUCUGATT against Fcna, the z-score was inactive: -1.19.

Turning to GGCUAAGUAGACAGGUUUUTT against Olfr1288, the z-score is inactive: 1.11.

Turning to CCACGACAUUCCAGAAAGGTT against Gimap6, the z-score was inactive: 1.29.

In the case of GGAUGUUGUCCAUACUGUATT against Zfp36l2, the z-score was inactive: -0.941.

Take GGGAAAAGCACAGAGCUGATT against Tk1: the z-score is inactive: -1.23.

On to GUGUACGUCUGUUAACACATT against Dad1, for which the z-score is active: -2.1.

GGCUGUUUUACAUCAUCCCTT against Ust: the z-score is inactive: -0.227.

Take CCCUGAAGUGUAACUUCAATT against Igsf21: the z-score was inactive: 0.7.

On to GCCUGAGAAACAUUCGGCATT against H2-T24, for which the z-score is inactive: -0.248.

Regarding CAACCGUUGUGGCCAUGACTT against Olfr59, the z-score was inactive: -0.332.

With GCCUAAAGCUUUUCUACAATT against Mlph, the z-score was inactive: 0.161.

GGUGCGUCCUGAAAUCAUCTT against Txndc12: the z-score was active: -2.52.

GCAAAAAGUGGAAUACUAUTT against Peak1: the z-score is inactive: 0.683.

Regarding GCUGGUGAAUGCGACCUUUTT against Tm4sf5, the z-score is inactive: -0.748.

Regarding CCGUAUCACGCACUUAGUUTT against Pxdn, the z-score is inactive: -0.0096.

With GCCGUGCGAUUUAAUGUGGTT against Wdr83, the z-score is inactive: 0.172.

For GGUGUCGAUGUCCUUUAUGTT against Zc3hav1l, the z-score was inactive: -1.05.

As to GCGACAUCUUACUUGAAAGTT against Fbxl3, the z-score is inactive: 0.0735.

As for GGCAAUGCUAAAUAUUUGCTT against Ndor1, the z-score is inactive: -0.0137.

Turning to GGAAUUGAUUCUCUUCUCATT against Top2b, the z-score was inactive: -1.32.

In the case of GCAAGCUGUUUGUUCCAAUTT against Gtf3c4, the z-score was inactive: 0.814.

With GGCAUCAAAGUGACAGAUGTT against Cdkn2aip, the z-score is inactive: -0.0529.

As for GGAAAACCUUGUUCAAAGUTT against Srxn1, the z-score is inactive: -0.0632.

For GGAAUAAGUCCUAUGAAUCTT against Fyttd1, the z-score was inactive: 0.792.

For GGAUAGAACACUUUCUUUUTT against Gk, the z-score is inactive: -0.0178.

As to GGCGAUUGAGUUUGUUUUGTT against Rabggtb, the z-score is inactive: 0.641.

For the sequence CCUCCAGAGUAUUGUCUAGTT against Ppfia3, the z-score was inactive: 1.26.

Consider GGAGAUGAAGACAUGGGACTT against Sly, for which the z-score is inactive: 0.558.

GCAGUGUCGCAUUACAUCGTT against Sec16a: the z-score was active: 3.45.

Regarding GGAGGAGCAACCCAUGUCUTT against Akip1, the z-score was inactive: 1.36.

On to GGAUAGAGACUGCUGGGUUTT against Zfp579, for which the z-score is inactive: 0.248.

With CGUAACCAAACCCUGGUUCTT against Ccnl1, the z-score was inactive: 1.03.

Turning to GACACUGUCAAAUUAUGGATT against Vmn1r74, the z-score was inactive: -0.581.

With GCUUAACUACCUUAAAGACTT against Scn3a, the z-score was inactive: 0.257.

Turning to GGCUUCAAGGUGAAACUCUTT against Cryl1, the z-score is inactive: -0.366.

For the sequence AGGGUCAUUCUGCUAUUCCTT against Taar7d, the z-score is inactive: -1.09.

GGUCUCCUACAAAAAGUAGTT against AA792892: the z-score is inactive: -0.59.

As for GGAGUUCUUCGUUUCCCGATT against Fbxw13, the z-score was inactive: 0.952.

Source of the values: PubChem BioAssay AID1508600 (Functional Genomics Laboratory (NCATS/FGL), 2020).
